# Literature values, collected in patent publication EP3261451B1, “SUPPLEMENTED MILK PRODUCT AND ITS PRODUCTION PROCESS” (Arla Foods Limited, priority 2015, dated 2016).
# At least one read-out could not be matched to a standard name with certainty.
# Conditions: relative to hydrated ferrous sulfate (FeSO4.7H2O), in adult humans
row,Substance,Relative bioavailability
1,Ferric saccharate,74
2,Ferrous gluconate,89
